These are yes or no findings as the source states them, for the method shown. For some of these results: Binding seen in cells or lysates may run through a third protein. Some results given as binding are weak or reduced against the parent protein; the word gives no strength. One block for each molecule: values may come before it.
Assays:
[1] = target: Sp35-Fc fusion protein (extra-cellular portion of human Sp35, residues 1-531, fused to the hinge and Fc region of human IgG1) (human) (UniProt Q96FE5); test: immunoprecipitation from HA-Sp35-transfected cells treated with Sp35-Fc
[2] = target: T1, human NgR1 receptor expressed on COS7 cells (human) (UniProt Q9BZR6); test: co-immunoprecipitation from COS7 cells co-expressing SP35, NgR1 and p75
T1 sequence (looked up): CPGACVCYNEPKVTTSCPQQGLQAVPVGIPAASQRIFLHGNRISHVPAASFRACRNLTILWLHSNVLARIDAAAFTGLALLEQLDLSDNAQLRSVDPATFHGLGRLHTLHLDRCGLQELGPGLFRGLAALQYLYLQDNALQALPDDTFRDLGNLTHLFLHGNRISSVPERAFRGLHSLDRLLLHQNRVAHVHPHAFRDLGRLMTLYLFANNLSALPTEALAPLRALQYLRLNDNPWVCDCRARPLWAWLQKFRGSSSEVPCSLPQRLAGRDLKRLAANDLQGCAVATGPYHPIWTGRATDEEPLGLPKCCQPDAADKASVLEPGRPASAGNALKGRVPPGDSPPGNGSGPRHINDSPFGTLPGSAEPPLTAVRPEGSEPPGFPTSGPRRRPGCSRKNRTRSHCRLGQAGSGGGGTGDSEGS

The chains behind the UniProt entries cited, without tags or fusion partners. Where a name states a change or a piece, a line headed by the entry shows the natural chain unless it says otherwise. Residues count along the entry.
UniProt Q96FE5: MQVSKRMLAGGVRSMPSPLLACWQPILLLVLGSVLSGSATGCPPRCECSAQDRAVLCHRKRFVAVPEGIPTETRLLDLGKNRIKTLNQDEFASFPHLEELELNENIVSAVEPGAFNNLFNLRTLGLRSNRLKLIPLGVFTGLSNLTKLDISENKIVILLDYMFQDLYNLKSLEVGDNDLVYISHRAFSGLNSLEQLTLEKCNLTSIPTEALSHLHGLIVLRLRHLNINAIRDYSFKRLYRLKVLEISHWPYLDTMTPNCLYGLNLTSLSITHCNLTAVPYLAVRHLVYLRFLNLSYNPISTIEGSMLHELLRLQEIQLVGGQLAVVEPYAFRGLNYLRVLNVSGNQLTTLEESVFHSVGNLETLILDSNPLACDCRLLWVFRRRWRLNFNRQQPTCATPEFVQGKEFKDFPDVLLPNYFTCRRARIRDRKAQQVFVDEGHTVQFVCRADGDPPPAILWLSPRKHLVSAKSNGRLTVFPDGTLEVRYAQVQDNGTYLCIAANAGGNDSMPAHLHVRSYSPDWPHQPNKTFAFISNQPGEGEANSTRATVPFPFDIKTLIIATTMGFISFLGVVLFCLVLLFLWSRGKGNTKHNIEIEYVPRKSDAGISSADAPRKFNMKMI
UniProt P07174, residues 30-425: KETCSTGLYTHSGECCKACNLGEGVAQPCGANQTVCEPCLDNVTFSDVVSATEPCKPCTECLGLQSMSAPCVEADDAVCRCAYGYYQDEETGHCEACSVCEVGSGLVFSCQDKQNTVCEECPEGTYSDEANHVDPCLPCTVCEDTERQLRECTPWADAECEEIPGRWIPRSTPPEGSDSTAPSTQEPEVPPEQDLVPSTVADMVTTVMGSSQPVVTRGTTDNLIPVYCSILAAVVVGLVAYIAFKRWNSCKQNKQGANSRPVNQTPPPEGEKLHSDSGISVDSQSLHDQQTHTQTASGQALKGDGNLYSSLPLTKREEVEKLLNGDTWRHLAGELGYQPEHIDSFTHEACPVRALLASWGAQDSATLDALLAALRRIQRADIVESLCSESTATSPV

[3] = target: T1, human NgR1 receptor expressed on COS7 cells (human); test: AP fusion binding to COS7 cells transfected with NgR1; NgR1 and p75; NgR1, p75 and SP35 (FIG. 5)

Molecule: Sp35-hemagglutinin (Sp35 signal sequence and extracellular domain, amino acids 1-531, with HA tag) (from UniProt Q96FE5 40-537)
binding [1]: binds

Molecule: rat p75 expressed on COS7 cells (from UniProt P07174 30-425) (receptor)
binding [2]: binds

Now from value to molecule:

binding [2]: binds
Molecule: SP35 expressed in transfected cells (COS7, HEK293) (from UniProt Q96FE5 40-620) (receptor)

binding [3]: binds
B1: AP-Omgp (ligand, UniProt P23515 25-417, looked up, not shown: large carriers)
chain: ICPLQCICTERHRHVDCSGRNLSTLPSGLQENIIHLNLSYNHFTDLHNQLTQYTNLRTLDISNNRLESLPAHLPRSLWNMSAANNNIKLLDKSDTAYQWNLKYLDVSKNMLEKVVLIKNTLRSLEVLNLSSNKLWTVPTNMPSKLHIVDLSNNSLTQILPGTLINLTNLTHLYLHNNKFTFIPDQSFDQLFQLQEITLYNNRWSCDHKQNITYLLKWMMETKAHVIGTPCSTQISSLKEHNMYPTPSGFTSSLFTVSGMQTVDTINSLSVVTQPKVTKIPKQYRTKETTFGATLSKDTTFTSTDKAFVPYPEDTSTETINSHEAAAATLTIHLQDGMVTNTSLTSSTKSSPTPMTLSITSGMPNNFSEMPQQSTTLNLWREETTTNVKTPLPS
